From paper PMC7862700 come the findings set out here.

Protein sequences, listed by entry. Tags and fused reporters are not part of them. Lines headed by an entry give the natural chain unless they say otherwise; changes in a name come on top.
UniProt O43186: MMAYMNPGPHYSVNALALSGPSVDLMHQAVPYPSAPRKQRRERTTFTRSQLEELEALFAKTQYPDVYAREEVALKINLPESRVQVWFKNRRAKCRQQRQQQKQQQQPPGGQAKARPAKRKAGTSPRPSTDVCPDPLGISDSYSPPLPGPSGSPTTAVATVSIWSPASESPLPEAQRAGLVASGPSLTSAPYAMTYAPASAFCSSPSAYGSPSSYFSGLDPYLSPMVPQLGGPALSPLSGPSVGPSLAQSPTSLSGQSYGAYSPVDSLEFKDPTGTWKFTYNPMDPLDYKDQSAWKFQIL

This is a selection; strong and weak results do not stand in their true shares. At the low end of the ranking the order means little.

This experiment deals with CRX (UniProt O43186). The experiment in a line: DAPPL (digital affinity profiling via proximity ligation, sequencing). The following applies: 10 mM Tris-HCl pH 7.5, 50 mM NaCl, 1 mM DTT, 4% glycerol, room temperature, 30 min; GST-TFs on glutathione beads, 16-mer random dsDNA library, 0.1% …; high values mean tight binding; double strand, one strand shown; scale: fold enrichment (6-mer frequency, TF over GST control).
The sequence TGAACA gave a binding signal of 1.06.

As for GAAGTC, the binding signal was found to be 0.53.

On to CCTGAC, for which the binding signal was 1.11.

For the sequence TACGGC, the binding signal was 1.2.

Sequence GATGTC came in with a binding signal of 0.814.

CGAACA: the binding signal worked out at 1.1.

In turn, CGGTTC displayed a binding signal of 0.715.

As to TACAGG, the binding signal was 1.08.

For ATATCC, the binding signal amounted to 1.58.

TCATTA yielded a binding signal of 1.62.

For the sequence AGCGAC, the binding signal amounted to 0.94.

The sequence TCTTGG came in with a binding signal of 1.32.

Take TCACAA: the binding signal came out at 1.09.

TGCTTG returned a binding signal of 0.973.

With ACTACA, the binding signal is 0.946.

With TGTCGC, the binding signal was 0.668.

As to ACACAA, the binding signal came out at 0.955.

Consider GAAGTA, for which the binding signal was 0.894.

On to CACTAC, for which the binding signal was found to be 0.937.

In turn, ATGATG gave a binding signal of 1.21.

CGCCGG showed a binding signal of 0.639.

AATAGT gave a binding signal of 1.19.

In the case of TACCTT, the binding signal was determined as 1.55.

As to AAAGGG, the binding signal amounted to 1.08.

GGGCTC showed a binding signal of 0.974.

With ATCTTA, the binding signal was found to be 2.11.

For the sequence TTATTC, the binding signal amounted to 2.37.

Take TACCGG: the binding signal amounted to 0.924.

Turning to GAACAA, the binding signal worked out at 1.06.

Consider TGTCAC, for which the binding signal turned out to be 0.84.

ACGCCT: the binding signal turned out to be 1.08.

On to CTATGT, for which the binding signal came out at 0.924.

CATACC registered a binding signal of 0.748.

Regarding ACTGTA, the binding signal was found to be 0.927.

ACGACT: the binding signal is 1.19.

In the case of CCCAAC, the binding signal came out at 0.88.

In the case of GTATGG, the binding signal was found to be 0.783.

On to CTGTTC, for which the binding signal amounted to 1.07.

Regarding CCATAC, the binding signal is 0.944.
